Source: patent US20100028340A1
No constants are given. Whether binding was seen depends on the method and setting. Some entries that bind do so weakly or less than the wild type.

What was measured:
[1] = biological target: recombinant rat RGM A (rat); experiment: direct ELISA on rRatRGMA
[2] = biological target: recombinant rat RGM A (rat); experiment: ELISA (data not shown)

B1: rat anti-human RGM A monoclonal antibody 5F9 (antibody, V domains shown)
VH: EVQLVESGGGLVQPGSSLKLSCVASGFTFSNYGMNWIRQAPKKGLEWIGMIYYDSSEKHYADSVKGRFTISRDNSKNTLYLEMNSLRSEDTAIYYCAKGTTPDYWGQGVMVTVSS
VL: DVVLTQTPVSLSVTLGDQASMSCRSSQSLEYSDGYTFLEWFLQKPGQSPQLLIYEVSNRFSGVPDRFIGSGSGTDFTLKISRVEPEDLGVYYCFQATHDPLTFGSGTKLEIKR
With B1 the binding [1] was “binds” and the binding [2] was “binds”.
